Experimental data reported in article PMC11423142, “Clec7a Worsens Long‐Term Outcomes after Ischemic Stroke by Aggravating Microglia‐Mediated Synapse Elimination” (Advanced Science, 2024).
Results are given in words; binding and its absence hold for the method and conditions named. Binding seen in cells or lysates may run through a third protein. Some results given as binding are weak or reduced against the parent protein; the word gives no strength.

Molecular target: T1, myeloid differentiation protein 2 (MD2), mouse, endogenous (mouse (endogenous in mouse brain)) (UniProt Q9JHF9)
T1 sequence: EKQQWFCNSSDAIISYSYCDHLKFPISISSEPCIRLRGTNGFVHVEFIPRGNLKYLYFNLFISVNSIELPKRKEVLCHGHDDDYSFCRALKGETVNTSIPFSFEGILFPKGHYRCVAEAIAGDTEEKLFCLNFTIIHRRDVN
Experiment: co-IP; endogenous proteins from mouse brain after ischemic stroke, 400-500 µg protein; biotinylated anti-MD2 or anti-Clec7a antibody, NeutrAvidin agarose beads, overnight 4 °C; immunoblot

binding: binds
B1: C-type lectin domain family 7 member A (Clec7a), mouse, endogenous (receptor, UniProt Q6QLQ4 1-244)
chain: MKYHSHIENLDEDGYTQLDFSTQDIHKRPRGSEKGSQAPSSPWRPIAVGLGILCFVVVVVAAVLGALGEYGHNSGRNPEEKDNFLSRNKENHKPTESSLDEKVAPSKASQTTGGFSQPCLPNWIMHGKSCYLFSFSGNSWYGSKRHCSQLGAHLLKIDNSKEFEFIESQTSSHRINAFWIGLSRNQSEGPWFWEDGSAFFPNSFQVRNTAPQESLLHNCVWIHGSEVYNQICNTSSYSICEKEL
